The target of test [1] is PSD-95 PDZ2 domain without His-tag (human) (UniProt P78352). Description: polyhistidine pull-down: PDZ2 prey on immobilised His6-NR2B bait, imidazole elution, SDS-PAGE, silver stain.
Test [2] has as its target HIS-PDZ2 protein (PSD-95 PDZ2, residues 155-249, with tag …) (human) (UniProt P78352). Kind of test: FP competition, alanine scan.
The target in test [3] is HIS-PDZ1 protein (PSD-95 PDZ1, residues 61-151, with tag …) (human) (UniProt P78352). Description: FP competition, alanine scan.
The target of test [4] is HIS-PDZ3 protein (PSD-95 PDZ3, residues 309-401, with tag …) (human) (UniProt P78352). Description: FP competition: fluorescent CRIPT probe (50 nM) on PDZ3 (5 µM).
The target of test [5] is PSD-95 PDZ2 domain without His-tag (human) (UniProt P78352). Kind of test: polyhistidine pull-down, competition: displaces PDZ2 from the immobilised His6-NR2B bait; SDS-PAGE, silver stain.

No constants are given. Whether binding was seen depends on the method and setting. For some of these results: In cells and extracts the contact can be indirect. Some entries that bind do so weakly or less than the wild type. For some of these results: Tags and fused reporters may be left off the sequences shown.

With HHHHHHYEKLSSIESDV [polyhistidine NR2B WT peptide (bait)], in test [1], the binding entry is listed as “binds”.

AESDV [Compound 11 (IESDV with Ile P^-4 replaced by Ala)]: the binding entry in test [2] and in test [3] was “binds” each time. Regarding IESDV [IESDV (7)], the results for the binding result in test [4] and in test [5] were “no binding (tested: log(Conc/M) about -3.3)” and “binds”, respectively. For IASDV [Compound 10 (IESDV with Glu P^-3 replaced by Ala)], the binding result in test [2] and in test [3] was “binds” throughout.

For the origin of these results see patent US20160176924A1, “MODIFIED PEPTIDES AS POTENT INHIBITORS OF THE PSD-95/NMDA RECEPTOR INTERACTION” (priority 2008, published 2016).
